The values below come from patent US20200055835A1, “USE OF TRICYCLIC SESQUITERPENE LACTONES IN THE TREATMENT OF OBESITY AND RELATED DISEASES AND NON-THERAPEUTIC TREATABLE CONDITIONS” (NEEM BIOTECH LTD., priority 2010, published 2020).

Structures are written as SMILES.

The series in a line: Food intake and efficiency of assimilation (bomb calorimeter) in the rat feeding experiment. The format is in vivo, Sprague-Dawley (SD) rats. As to conditions: 0.1% in chow.

On to `C=C(CO)C(=O)OC1CC(=C)C2CC(O)C(=C)C2C2OC(=O)C(=C)C12` (centres unmarked) [Cynaropicrin, (8-hydroxy-3,6,9-trimethylidene-2-oxo-3a,4,5,6a,7,8,9a, 9b-octahydroazuleno[4,5-b]furan-4-yl) 2-(hydroxymethyl)prop-2-enoate], for which the assimilation efficiency worked out at 83% (HF (high fat diet, 34% fat)) and 86% (LF (balanced diet, 4% fat)).
